In the supplement of paper PMC10849652:
Some of the results follow.

Chains of the proteins cited; added tags and fusions are not shown. Lines headed by an entry give the natural chain unless they say otherwise; changes in a name come on top.
UniProt Q13901: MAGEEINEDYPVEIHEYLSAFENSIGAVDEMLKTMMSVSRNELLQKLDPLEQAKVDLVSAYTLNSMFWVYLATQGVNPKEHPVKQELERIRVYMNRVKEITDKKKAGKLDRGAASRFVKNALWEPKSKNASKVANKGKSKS
UniProt Q9UPA5: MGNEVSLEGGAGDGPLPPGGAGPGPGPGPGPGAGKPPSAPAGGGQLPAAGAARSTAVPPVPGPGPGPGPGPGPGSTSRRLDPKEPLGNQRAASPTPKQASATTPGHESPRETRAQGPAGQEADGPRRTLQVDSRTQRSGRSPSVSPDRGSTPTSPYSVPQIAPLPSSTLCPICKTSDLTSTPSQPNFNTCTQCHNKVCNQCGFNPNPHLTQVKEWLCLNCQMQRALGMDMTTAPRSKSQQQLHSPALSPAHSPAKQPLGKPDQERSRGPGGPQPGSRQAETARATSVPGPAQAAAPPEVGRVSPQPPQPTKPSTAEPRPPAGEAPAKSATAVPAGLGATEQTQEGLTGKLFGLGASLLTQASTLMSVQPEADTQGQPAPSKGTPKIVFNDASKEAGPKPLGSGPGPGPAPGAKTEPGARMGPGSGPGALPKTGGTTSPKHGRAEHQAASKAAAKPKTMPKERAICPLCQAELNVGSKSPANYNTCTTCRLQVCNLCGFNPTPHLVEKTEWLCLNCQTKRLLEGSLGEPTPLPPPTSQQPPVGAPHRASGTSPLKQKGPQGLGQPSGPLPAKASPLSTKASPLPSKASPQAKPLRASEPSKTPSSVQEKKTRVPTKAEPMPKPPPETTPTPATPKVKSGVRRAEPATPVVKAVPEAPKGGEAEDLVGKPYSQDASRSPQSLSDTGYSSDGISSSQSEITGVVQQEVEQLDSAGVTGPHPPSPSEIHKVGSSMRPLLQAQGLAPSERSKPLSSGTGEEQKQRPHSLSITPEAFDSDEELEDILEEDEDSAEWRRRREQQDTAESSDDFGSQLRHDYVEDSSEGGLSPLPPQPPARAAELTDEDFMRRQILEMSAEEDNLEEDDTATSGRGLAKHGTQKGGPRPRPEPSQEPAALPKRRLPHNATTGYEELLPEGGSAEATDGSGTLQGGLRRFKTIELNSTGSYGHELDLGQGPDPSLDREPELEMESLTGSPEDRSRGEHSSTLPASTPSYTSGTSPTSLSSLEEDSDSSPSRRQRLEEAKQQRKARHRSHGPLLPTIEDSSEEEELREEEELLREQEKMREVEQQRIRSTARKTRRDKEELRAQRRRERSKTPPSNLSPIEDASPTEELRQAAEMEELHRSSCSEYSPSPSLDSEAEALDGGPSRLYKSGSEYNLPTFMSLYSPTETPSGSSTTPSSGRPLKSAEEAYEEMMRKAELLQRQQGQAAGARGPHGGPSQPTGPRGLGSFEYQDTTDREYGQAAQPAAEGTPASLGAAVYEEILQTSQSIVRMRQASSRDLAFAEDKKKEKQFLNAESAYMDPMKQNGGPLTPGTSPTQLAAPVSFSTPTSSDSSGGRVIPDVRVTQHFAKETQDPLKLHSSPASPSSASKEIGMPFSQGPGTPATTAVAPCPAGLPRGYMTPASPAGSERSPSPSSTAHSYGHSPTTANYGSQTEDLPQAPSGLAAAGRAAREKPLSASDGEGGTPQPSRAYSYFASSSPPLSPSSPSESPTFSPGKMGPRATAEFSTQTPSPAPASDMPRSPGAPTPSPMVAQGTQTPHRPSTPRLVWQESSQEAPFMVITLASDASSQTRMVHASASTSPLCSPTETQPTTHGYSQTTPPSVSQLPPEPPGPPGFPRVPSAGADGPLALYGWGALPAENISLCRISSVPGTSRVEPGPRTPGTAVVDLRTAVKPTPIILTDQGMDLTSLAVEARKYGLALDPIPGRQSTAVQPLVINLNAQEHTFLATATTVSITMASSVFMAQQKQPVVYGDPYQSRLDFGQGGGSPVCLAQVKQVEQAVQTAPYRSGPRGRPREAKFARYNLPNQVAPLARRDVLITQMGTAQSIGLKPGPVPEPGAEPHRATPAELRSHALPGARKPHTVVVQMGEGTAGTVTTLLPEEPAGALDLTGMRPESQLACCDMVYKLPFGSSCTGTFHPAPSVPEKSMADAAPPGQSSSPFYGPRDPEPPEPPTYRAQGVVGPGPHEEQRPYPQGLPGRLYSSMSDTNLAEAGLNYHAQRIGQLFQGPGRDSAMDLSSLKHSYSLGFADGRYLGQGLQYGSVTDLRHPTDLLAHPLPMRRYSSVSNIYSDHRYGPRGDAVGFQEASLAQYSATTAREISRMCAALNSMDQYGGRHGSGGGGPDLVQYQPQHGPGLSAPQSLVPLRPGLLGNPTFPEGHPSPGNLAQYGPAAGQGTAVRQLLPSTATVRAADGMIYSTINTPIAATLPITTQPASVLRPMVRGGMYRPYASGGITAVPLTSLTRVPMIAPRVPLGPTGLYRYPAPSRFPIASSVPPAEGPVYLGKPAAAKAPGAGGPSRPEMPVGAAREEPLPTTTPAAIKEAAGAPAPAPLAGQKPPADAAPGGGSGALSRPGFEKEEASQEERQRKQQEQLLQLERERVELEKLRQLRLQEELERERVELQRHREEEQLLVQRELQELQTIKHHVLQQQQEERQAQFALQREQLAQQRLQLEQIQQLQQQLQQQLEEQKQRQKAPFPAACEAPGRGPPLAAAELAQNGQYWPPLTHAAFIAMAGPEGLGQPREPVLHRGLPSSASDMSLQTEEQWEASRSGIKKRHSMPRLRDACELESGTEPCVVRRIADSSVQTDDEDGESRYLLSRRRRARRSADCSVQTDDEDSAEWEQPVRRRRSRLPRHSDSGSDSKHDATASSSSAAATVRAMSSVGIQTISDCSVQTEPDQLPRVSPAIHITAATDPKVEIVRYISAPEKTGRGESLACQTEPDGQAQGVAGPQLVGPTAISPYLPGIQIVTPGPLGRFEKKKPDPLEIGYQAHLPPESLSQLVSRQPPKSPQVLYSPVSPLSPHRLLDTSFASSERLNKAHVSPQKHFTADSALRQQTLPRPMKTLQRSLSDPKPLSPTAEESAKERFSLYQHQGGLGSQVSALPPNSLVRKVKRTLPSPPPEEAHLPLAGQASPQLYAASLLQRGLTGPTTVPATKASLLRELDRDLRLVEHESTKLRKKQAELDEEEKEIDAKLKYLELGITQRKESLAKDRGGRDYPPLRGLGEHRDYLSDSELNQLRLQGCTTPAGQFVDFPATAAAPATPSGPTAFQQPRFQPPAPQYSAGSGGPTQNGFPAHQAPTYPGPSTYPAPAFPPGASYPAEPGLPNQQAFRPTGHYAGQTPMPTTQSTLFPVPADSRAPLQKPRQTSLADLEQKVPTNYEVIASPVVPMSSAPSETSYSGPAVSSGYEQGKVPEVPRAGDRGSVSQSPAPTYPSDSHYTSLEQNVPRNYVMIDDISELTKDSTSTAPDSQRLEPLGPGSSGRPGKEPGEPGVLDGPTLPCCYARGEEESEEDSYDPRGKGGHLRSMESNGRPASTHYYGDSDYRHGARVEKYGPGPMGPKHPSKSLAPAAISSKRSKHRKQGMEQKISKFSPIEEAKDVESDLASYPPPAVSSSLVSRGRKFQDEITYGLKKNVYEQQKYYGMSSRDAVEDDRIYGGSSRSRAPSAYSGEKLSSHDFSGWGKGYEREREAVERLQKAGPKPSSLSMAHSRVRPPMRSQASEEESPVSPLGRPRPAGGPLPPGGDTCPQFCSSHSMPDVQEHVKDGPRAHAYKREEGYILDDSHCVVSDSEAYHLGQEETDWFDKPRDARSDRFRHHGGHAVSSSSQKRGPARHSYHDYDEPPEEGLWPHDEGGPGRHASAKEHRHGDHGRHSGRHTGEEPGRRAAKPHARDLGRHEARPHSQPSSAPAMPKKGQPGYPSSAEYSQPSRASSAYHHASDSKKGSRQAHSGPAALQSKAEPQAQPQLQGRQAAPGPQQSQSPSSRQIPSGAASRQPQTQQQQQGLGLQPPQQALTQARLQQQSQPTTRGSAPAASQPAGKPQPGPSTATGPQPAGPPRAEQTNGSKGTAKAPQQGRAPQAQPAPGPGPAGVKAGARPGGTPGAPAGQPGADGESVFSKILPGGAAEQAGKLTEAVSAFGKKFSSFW
UniProt Q9NSK7: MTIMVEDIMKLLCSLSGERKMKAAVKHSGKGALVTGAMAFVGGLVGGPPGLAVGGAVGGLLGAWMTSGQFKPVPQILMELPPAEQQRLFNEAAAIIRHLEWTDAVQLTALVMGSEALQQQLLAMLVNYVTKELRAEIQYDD
UniProt P27482, whole entry, looked up: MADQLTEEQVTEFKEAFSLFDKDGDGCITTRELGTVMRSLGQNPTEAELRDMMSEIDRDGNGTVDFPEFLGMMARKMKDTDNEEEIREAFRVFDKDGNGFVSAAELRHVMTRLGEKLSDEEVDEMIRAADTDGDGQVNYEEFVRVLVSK
UniProt Q06187: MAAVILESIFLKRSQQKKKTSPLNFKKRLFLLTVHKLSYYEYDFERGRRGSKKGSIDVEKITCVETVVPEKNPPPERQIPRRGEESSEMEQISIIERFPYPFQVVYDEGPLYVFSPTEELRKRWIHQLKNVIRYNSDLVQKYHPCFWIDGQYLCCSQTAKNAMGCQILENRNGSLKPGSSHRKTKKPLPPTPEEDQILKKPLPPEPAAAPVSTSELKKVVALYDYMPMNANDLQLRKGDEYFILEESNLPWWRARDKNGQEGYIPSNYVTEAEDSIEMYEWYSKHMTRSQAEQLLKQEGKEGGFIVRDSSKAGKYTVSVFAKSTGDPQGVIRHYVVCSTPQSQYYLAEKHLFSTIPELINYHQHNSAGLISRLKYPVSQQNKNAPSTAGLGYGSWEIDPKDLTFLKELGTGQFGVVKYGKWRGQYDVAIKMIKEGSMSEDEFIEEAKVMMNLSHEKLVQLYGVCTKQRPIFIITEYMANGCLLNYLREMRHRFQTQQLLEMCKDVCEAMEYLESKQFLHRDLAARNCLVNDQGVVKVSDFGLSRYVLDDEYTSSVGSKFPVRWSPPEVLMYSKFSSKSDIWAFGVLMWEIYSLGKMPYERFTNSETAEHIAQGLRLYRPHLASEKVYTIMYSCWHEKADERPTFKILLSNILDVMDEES
UniProt Q9Y2V0: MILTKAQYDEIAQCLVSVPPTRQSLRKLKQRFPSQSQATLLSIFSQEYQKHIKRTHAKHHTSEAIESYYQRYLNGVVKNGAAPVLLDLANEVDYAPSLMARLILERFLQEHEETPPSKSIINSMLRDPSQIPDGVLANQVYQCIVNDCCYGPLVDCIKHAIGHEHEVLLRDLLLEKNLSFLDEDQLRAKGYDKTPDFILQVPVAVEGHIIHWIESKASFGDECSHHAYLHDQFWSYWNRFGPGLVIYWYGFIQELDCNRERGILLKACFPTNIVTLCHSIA
UniProt Q6PH81: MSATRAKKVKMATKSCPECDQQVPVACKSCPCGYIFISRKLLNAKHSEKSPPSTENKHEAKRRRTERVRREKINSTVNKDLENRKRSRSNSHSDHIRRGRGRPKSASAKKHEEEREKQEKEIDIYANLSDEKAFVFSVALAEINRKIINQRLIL
UniProt Q9BRJ6: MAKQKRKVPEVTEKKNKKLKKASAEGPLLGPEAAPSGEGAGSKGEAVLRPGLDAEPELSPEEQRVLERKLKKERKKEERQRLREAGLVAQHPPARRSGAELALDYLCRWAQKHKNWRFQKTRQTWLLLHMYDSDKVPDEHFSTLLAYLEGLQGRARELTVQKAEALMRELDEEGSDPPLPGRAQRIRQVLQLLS
UniProt Q9H9S4: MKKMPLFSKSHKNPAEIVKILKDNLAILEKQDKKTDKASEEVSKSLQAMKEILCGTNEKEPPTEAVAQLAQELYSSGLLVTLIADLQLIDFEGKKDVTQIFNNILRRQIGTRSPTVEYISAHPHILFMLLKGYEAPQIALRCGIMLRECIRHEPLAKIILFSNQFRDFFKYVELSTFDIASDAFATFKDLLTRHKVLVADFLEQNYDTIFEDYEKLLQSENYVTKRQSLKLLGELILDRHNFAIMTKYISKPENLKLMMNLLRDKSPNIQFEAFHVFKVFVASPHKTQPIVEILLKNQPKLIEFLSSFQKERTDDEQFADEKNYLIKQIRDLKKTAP
UniProt Q96N11, whole entry, looked up: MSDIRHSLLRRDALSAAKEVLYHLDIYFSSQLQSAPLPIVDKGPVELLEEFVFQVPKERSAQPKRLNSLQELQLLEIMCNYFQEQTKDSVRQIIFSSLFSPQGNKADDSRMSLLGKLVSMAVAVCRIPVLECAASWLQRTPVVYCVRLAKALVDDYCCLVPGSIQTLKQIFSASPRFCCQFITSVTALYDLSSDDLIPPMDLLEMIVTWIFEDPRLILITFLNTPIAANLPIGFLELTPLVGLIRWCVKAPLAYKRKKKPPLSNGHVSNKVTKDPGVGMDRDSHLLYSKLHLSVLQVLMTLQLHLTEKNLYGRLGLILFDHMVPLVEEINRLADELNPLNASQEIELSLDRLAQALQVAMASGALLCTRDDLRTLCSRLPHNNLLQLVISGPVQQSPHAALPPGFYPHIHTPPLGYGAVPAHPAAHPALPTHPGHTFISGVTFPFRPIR

Assays:
Assay in all cases: log2 fold change, soluble protein after heating vs DMSO (PISA); higher = thermal stabilisation; K562 cells, 10 uM, 30 min; active = over 0.2 and 3.5 SD of the protein, either way, in both replicates (recomputed)
[1] = compound: C1=CC=C(C=C1)[C@H](COC2=CC3=C(C=C2)NC(=O)N3)NC(=O)C4=CC=CN(C4=O)CC5=CC(=C(C=C5)F)F
In short: (§1)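 K562 cells at 2×10^6 cells/mL were given 10 μM compound for 30 min. Aliquots then went through 3 min of heating across 48°C-58°C, were pooled, and were extracted in PBS with 0.5% NP-40 at 4°C, and the supernatant after 21,000xg for 90 min was quantified by TMTpro 16plex LC-MS/MS with channel sums equalised. Thermal stability relative to control samples, from duplicates, is given as log2 fold change.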

[2] = compound: CC1=C2C(=CC=C1)N=C(N(C2=O)C3=CC=CC=C3C)CN4C=NC5=C(N=CN=C54)N
In short: as §1

[3] = compound: Cc1sc2c(c1C)C(c1ccc(Cl)cc1)=N[C@@H](CC(=O)OC(C)(C)C)c1nnc(C)n1-2
In short: as §1

[4] = compound: CC1=C(SC2=C1C(=N[C@H](C3=NN=C(N32)C)CC(=O)N)C4=CC=C(C=C4)Cl)C
In short: as §1

[5] = compound: c1ccc([C@@H]2C[C@H]2NC2CCNCC2)cc1
In short: as §1

Target | log2 fold change [1] | log2 fold change [2] | log2 fold change [3] | log2 fold change [4] | log2 fold change [5]
C1D (UniProt Q13901) | inactive: -0.019 | inactive: 0.028 | inactive: 0.074 | – | –
BSN (UniProt Q9UPA5) | – | inactive: 0.022 | – | inactive: -0.007 | inactive: 0.08
C19orf12 (UniProt Q9NSK7) | inactive: -0.04 | – | inactive: -0.106 | – | –
CALML3 (UniProt P27482) | – | – | inactive: -0.481 | – | –
BTK isoform 2 (UniProt Q06187) | – | inactive: 0.05 | inactive: 0.251 | inactive: -0.082 | inactive: -0.051
C15orf41 (UniProt Q9Y2V0) | – | inactive: 0.014 | inactive: -0.011 | inactive: 0.081 | inactive: 0.149
C16orf87 (UniProt Q6PH81) | inactive: -0.037 | inactive: 0.097 | – | – | –
C7orf50 (UniProt Q9BRJ6) | – | inactive: -0.17 | inactive: 0.022 | inactive: -0.224 | inactive: 0.105
CAB39L (UniProt Q9H9S4) | inactive: 0.088 | inactive: 0.201 | inactive: 0.285 | – | –
C7orf26 (UniProt Q96N11) | inactive: -0.021 | inactive: 0.171 | – | – | –
C5orf24 (UniProt Q7Z6I8) | – | inactive: -0.109 | inactive: 0.039 | – | –

2 successive records from above, for reference:
Target | log2 fold change [1] | log2 fold change [2] | log2 fold change [3] | log2 fold change [4] | log2 fold change [5]
CAB39L (UniProt Q9H9S4) | inactive: 0.088 | inactive: 0.201 | inactive: 0.285 | – | –
C7orf26 (UniProt Q96N11) | inactive: -0.021 | inactive: 0.171 | – | – | –
